## Library screen at single concentrations

Chains of the proteins cited; added tags and fusions are not shown. Residues count along the entry.
UniProt Q8IDJ8, 1-583: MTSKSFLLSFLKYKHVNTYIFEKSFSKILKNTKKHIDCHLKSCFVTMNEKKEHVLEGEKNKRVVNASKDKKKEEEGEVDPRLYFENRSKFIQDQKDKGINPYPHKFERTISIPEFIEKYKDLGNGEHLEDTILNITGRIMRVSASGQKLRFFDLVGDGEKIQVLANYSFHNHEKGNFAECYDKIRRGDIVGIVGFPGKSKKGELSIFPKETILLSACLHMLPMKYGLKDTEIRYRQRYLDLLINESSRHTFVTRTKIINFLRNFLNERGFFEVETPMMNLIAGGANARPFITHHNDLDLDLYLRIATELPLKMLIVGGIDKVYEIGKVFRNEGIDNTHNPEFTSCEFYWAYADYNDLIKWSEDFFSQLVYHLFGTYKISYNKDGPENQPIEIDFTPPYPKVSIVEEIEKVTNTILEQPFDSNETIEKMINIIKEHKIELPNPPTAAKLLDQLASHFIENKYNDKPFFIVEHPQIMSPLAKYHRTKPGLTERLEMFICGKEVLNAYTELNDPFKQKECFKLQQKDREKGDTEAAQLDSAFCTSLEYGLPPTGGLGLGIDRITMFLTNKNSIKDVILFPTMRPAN
UniProt Q4DA54, 1-478: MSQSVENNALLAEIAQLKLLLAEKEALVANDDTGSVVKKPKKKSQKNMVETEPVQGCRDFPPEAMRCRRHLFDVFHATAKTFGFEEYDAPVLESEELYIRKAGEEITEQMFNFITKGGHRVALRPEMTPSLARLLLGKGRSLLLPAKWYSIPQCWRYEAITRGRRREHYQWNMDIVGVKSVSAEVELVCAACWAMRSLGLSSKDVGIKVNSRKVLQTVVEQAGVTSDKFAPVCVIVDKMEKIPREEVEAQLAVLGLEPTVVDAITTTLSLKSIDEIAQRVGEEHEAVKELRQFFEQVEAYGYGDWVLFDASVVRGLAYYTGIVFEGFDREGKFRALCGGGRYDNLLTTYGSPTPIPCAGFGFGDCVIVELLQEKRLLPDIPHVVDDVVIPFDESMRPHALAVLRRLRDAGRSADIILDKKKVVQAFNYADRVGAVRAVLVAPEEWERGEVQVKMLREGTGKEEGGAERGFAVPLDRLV
UniProt I6X8D2, whole entry: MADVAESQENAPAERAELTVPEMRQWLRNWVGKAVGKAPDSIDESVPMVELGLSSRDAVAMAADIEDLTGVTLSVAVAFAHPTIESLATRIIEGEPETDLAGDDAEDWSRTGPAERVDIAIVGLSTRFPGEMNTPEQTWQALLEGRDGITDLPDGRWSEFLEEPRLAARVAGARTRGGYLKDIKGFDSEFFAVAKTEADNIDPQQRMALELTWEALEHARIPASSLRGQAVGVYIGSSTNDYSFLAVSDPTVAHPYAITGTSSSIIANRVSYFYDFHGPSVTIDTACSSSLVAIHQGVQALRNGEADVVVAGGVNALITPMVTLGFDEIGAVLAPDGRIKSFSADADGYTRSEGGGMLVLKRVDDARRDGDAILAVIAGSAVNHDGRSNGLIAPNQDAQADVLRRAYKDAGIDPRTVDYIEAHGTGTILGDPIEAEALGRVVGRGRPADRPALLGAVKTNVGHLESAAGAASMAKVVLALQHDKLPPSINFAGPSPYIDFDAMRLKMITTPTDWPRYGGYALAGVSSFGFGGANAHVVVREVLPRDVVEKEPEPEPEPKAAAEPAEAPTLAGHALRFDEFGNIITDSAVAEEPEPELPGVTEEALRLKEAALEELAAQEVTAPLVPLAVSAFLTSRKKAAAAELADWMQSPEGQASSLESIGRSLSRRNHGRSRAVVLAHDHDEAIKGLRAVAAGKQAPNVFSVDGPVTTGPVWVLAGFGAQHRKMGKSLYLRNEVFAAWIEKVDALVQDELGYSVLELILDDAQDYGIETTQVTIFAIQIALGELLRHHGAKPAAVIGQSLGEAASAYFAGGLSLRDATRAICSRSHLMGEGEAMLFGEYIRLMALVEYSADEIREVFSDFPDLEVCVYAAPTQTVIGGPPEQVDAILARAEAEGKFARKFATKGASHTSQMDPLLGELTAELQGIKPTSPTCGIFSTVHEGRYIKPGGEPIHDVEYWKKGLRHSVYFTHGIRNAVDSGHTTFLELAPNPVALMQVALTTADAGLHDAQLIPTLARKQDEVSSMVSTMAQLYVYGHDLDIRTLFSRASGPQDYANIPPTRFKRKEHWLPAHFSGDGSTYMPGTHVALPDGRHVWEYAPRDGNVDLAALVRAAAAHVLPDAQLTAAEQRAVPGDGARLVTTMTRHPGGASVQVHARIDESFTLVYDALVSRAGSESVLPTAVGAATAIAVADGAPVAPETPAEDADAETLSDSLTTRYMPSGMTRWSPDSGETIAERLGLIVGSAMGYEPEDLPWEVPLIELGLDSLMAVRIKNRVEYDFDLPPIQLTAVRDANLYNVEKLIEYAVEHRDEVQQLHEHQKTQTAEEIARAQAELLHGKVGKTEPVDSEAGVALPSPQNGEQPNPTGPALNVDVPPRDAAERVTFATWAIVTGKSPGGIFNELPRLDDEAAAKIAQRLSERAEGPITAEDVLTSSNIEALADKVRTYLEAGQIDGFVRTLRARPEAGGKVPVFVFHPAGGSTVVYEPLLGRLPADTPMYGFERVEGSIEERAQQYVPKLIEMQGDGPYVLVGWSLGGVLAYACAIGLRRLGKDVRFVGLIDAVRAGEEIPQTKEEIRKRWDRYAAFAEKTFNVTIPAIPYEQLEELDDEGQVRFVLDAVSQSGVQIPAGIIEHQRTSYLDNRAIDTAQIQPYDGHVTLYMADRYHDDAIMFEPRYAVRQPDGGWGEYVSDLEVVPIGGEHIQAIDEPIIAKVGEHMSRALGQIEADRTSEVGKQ

Results are given as percent effect. The record does not define 0% and 100%; most values in the screen are far below 50% and negative numbers occur (in some assays of this library far below -100). Compounds were drawn at random from those tested, without regard to their results. Two or more numbers in one place are separate tests of the same structure; such repeats can differ widely. A dash means the value is not listed here; it may have been measured.

A: 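Enzyme assay of the cytosolic lysyl-tRNA synthetase in 384-well plates, read by luminescence. Target: Lysine-tRNA ligase, Plasmodium falciparum 3D7 (UniProt Q8IDJ8). Concentration: 30 µM. Direction is inferred from only a few compounds that gave an IC50; most scored high, so higher reads as stronger inhibition. About 69,000 compounds were tested under these conditions; 0.071% (about 49) showed 50% or more at least once.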
B: 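Enzyme assay of histidyl-tRNA synthetase; the read-out is not stated. Target: Histidine-tRNA ligase, Trypanosoma cruzi CL Brener (UniProt Q4DA54). Tested at 30 µM. Direction is inferred from retests: higher values go with stronger inhibition. Of about 69,000 compounds tested this way, about 31 (0.045%) reached 50% or more in at least one test.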
C: 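Cell assay of Leishmania donovani living inside macrophages; the read-out is not stated. Tested at 30 µM. The record gives no direction; compounds that gave an IC50 in retests scored well above the rest, so higher reads as stronger inhibition. Size under these conditions: about 69,000 compounds, about 1,000 of them at 50% or above in at least one test.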
D: 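Enzyme assay of the thioesterase domain of polyketide synthase 13; the read-out is not stated. Target: Polyketide synthase Pks13, Mycobacterium tuberculosis (UniProt I6X8D2). Compounds at 30 µM. Higher reads as stronger inhibition (inferred from which compounds were picked for retests). Size under these conditions: about 67,000 compounds, about 300 of them at 50% or above in at least one test.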

compound,A,B,C,D
N#Cc1cnc(NCc2ccc(C(=O)NC3CC3)cc2)c(Cl)c1,-0.06762,1.053,-13.99,1.342
Cn1ccc(C(=O)NC2CCC23CCN(Cc2cccnc2)CC3)c1.O=C(O)C(F)(F)F.O=C(O)C(F)(F)F (configuration not stated),-,-,7.814,-
CCN(Cc1ccc2c(c1)OCCO2)C(=O)NCCc1cnn(C)c1,1.288,7.289,17.17,-22.99
COCCN1CCc2cc(C(=O)N(C)C)c(NCC3CC3)nc2CC1,2.234,8.475,-,-8.749
CC(C)S(=O)(=O)C(C)C(=O)NCc1ccccc1COc1ccccc1 (configuration not stated),0.1643,9.091,-8.098,0.9454
Nc1cc(O)nc(CCNC(=O)CC[C@@H]2CCCN3CCCC[C@H]23)n1,1.096,2.618,-,-4.843
CC(C)(C)C(CCO)NC(=O)Nc1ccncc1 (configuration not stated),-4.561,3.077,6.237,-20.61
Cc1c(CNCc2nn(-c3ccccc3)c3c2CCC3)cc(C#N)n1C,5.761,9.554,49.86,-34.28
Cn1cnnc1C1CCN(C(=O)CCCOc2ccccc2)CC1,2.46,6.916,-38.79,-0.04958
Cc1nc(C2CCCN2C(=O)CC2CCCC2)ncc1C(N)=O (configuration not stated),2,0.7491,2.068,11.47
[H][C@@]12CS(=O)(=O)C[C@]1([H])N(C(=O)c1cnc(C)cn1)CCN2C(=O)C(C)C,-,-,-29.18,-
O=C(NC1CCCC1)O[C@H]1COCCN(c2nc3ccccc3s2)C1,8.598,3.96,-0.9221,-5.106
Cc1csc(C2(NCc3ccc(OCC(F)F)cc3)CCCC2)n1,5.972,8.621,-15.74,-2.881
CCC(C)c1ccc(NC(=O)C2CCN(C(=O)N(C)C)CC2)cc1 (configuration not stated),-2.334,1.01,18.48,-20.99
Cn1nc(C(=O)N2CCOCC2)cc1C(=O)Nc1cc(Cl)cc(Cl)c1,0.7434,-1.754,10.15,-19.67
Cn1cc(-c2cnc(N3CCOCC3)nc2)cc1C(=O)NCCO,3.873,3.825,-,-10.64
Cn1nc(Cn2cccn2)c2c1CN(Cc1ccsc1)C2,2.986,8.387,-,-7.356
Fc1cccc2c1CCC2NCc1ccc(N2CCOCC2)cc1 (configuration not stated),-2.008,3.093,2.661,-5.017
CCN1CCCC(O)(CN(C)Cc2c(C)nn(C)c2C)C1 (configuration not stated),7.907,6.211,-4.942,-3.481
COCC(=O)N1CCn2c(COc3cccnc3)cnc2C1C.O=C(O)C(F)(F)F (configuration not stated),-,-,-0.6932,-
Cc1cc(CN2CCN(Cc3ccc(C#N)cc3OC(F)F)CC2)no1,-2.012,0,6.253,-11.04
O=C(CCc1ccsc1)N1CCCCC1Cn1cccn1 (configuration not stated),1.111,3.79,8.204,-16.87
COCc1nc(N(C)C)ncc1C(=O)Nc1cc(C)cc(C)c1,-0.4101,2.609,45.44,-16.61
CC(O)(CNC(=O)NCCc1ccc2c(c1)CCO2)c1ccsc1 (configuration not stated),0.9755,1.327,9.489,-14.08
O=C(CC1CCCC1)N1CC[C@H]2[C@H]1CCN2c1nncs1,15.83,5.063,-,-5.186
O=C(Nc1cc(C2CCOCC2)[nH]n1)c1cc[nH]n1,1.978,5.82,0.1865,-5.561
COc1ccc(C2CCCN2C(=O)c2cc(C(C)C)on2)cc1 (configuration not stated),4.987,5.941,19.76,-17.03
Cc1cc(NC(=O)CCN2CCCC2Cn2cncn2)no1 (configuration not stated),0.5081,1.128,-0.3959,3.636
O=C(O)C(F)(F)F.O=C(O)C(F)(F)F.[H][C@@]12CN(Cc3ccoc3)C[C@]1([H])OCCN2c1ccc(C)nn1,-,-,10.09,-
O=C(c1ccc(Cl)o1)N1CCCN(Cc2cscn2)CC1,8.582,4.151,21.55,-81.63
O=C(NCCOc1ccc(Cl)cn1)Nc1nccs1,5.194,0,-8.664,-7.804
CCC(Nc1cccc(OC)c1)C(=O)N(CCO)Cc1nccs1 (configuration not stated),3.065,9.948,26.79,-21.89
CNC(=O)[C@@H]1C[C@H](N)CN1Cc1cc2cc(OC)ccc2nc1O,3.37,5.319,37.79,-20.8
COCC(=O)N1CCc2nc(NC(C)C)nc(NC(C)C)c2CC1,4.708,4.233,14.07,-
Cc1cccc(NC(C)C(=O)Nc2nccs2)c1 (configuration not stated),-0.3876,2.591,-50.32,22.22
Cc1sc(C(=O)O)cc1S(=O)(=O)Nc1c(F)cccc1-n1cccn1,11.25,13.33,13.34,10.24
CC(C)CCNC(=O)c1csc(NC2CC2)n1,6.338,1.22,-13.42 & 11.09,2.141
Cn1ccnc1CN1CCCC1CCc1ccccc1 (configuration not stated),3.554,14.29,-6.5,-6.266
Cc1nc(COCc2cnc3n2CCN(CC2CCC2)C3C)cs1.O=C(O)C(F)(F)F (configuration not stated),-,-,21.58,-
Cc1ocnc1C(=O)Nc1ccc(-c2nnc(N(C)C)o2)cc1,0.7857,4.972,19.13,-31.24
Cc1cc(C)n(Cc2cc(C(=O)N[C@H]3CCCCNC3=O)n[nH]2)n1,1.397,1.111,-0.7368,-25.41
C(=C\c1ccc(CN2CCCC2)cn1)/c1ccccc1,-,-,-20.11,-
CCC(C)N(Cc1sccc1C)C(=O)c1cnc[nH]1 (configuration not stated),6.683,9.453,24.36,-18.8
O=C(Nc1cccnc1-n1cc(Cl)cn1)C1CCCCC1,2.158,-1.754,14.46,-26.99
Cc1ccc(NC2CCN(C(=O)c3ccnc(N(C)C)c3)CC2)nn1,5.173,5.714,27.07,-14.79
Cn1cnnc1C1CCCN(C(=O)NCCc2ccccn2)C1 (configuration not stated),2.549,0,-24.85,7.868
CC(C)Nc1nc(-c2ccccc2)nc2c1CCN(C(=O)C1CC1)CC2.O=C(O)C(F)(F)F,-,-,-1.007,-
CCCN1CCC(Nc2cc(-c3ccccc3)ccc2OC)CC1,6.279,6.358,94.4,-5.766

Repeated from the top, 4 entries:

- N#Cc1cnc(NCc2ccc(C(=O)NC3CC3)cc2)c(Cl)c1 | A: -0.06762%; B: 1.053%; C: -13.99%; D: 1.342%
- Cn1ccc(C(=O)NC2CCC23CCN(Cc2cccnc2)CC3)c1.O=C(O)C(F)(F)F.O=C(O)C(F)(F)F (configuration not stated) | C: 7.814%
- CCN(Cc1ccc2c(c1)OCCO2)C(=O)NCCc1cnn(C)c1 | A: 1.288%; B: 7.289%; C: 17.17%; D: -22.99%
- COCCN1CCc2cc(C(=O)N(C)C)c(NCC3CC3)nc2CC1 | A: 2.234%; B: 8.475%; D: -8.749%

From ChEMBL document CHEMBL3988442, “University of Dundee, Small-Polar-MMV Screening Library” (2021).